{"source": "patent US20240409599A1", "about": "(Genentech, published 2024)", "target": "T1, Mouse IL-18BP (isoform D) (mouse, UniProt Q9Z0M9 29-193, biotinylated (site not stated))", "T1 sequence": "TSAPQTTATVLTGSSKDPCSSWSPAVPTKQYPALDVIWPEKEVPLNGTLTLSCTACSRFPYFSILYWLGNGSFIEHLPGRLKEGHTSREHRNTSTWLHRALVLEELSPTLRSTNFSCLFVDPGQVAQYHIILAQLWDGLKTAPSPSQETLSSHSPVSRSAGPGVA", "assay": "SPR by reference to Table 8", "note": "Results are given in words; binding and its absence hold for the method and conditions named. Some entries that bind do so weakly or less than the wild type. Where a sequence is shown, tags or fusion partners need not be part of it.", "data": [{"binder": "Mouse IL-18 T44C/L189C Fc (Fc fusion) NFGRLHSTCAVIRNINDQVLFVDKRQPVFEDMTDIDQSASEPQTRLIIYMYKDSEVRGLAVTLSVKDSKMSTLSSKNKIISFEEMDPPENIDDIQSDLIFFQKRVPGHNKMEFESSLYEGHFLASQKEDDAFKLILKKKDENGDKSVMFTLTNCHQSGGGGAGGGGEPRGPTIKPCPPCKCPAPNAAGGPSVFIFPPKIKDVLMISLSPIVTCVVVDVSEDDPDVQISWFVNNVEVHTAQTQTHREDYNSTLRVVSALPIQHQDWMSGKEFKCKVNNKDLGAPIERTISKPKGSVRAPQVYVLPPPEEEMTKKQVTLTCMVTDFMPEDIYVEWTNNGKTELNYKNTEPVLDSDGSYFMYSKLRVEKKNWVERNSYSCSVVHEGLHNHHTTKSFSRTPGK", "values": [{"measurement": "binding", "value": "binds"}]}]}
